# Biological target: T1, mDDO (mouse D-aspartate oxidase) (Mus musculus, UniProt Q922Z0)
# T1 sequence (Q922Z0 1-341): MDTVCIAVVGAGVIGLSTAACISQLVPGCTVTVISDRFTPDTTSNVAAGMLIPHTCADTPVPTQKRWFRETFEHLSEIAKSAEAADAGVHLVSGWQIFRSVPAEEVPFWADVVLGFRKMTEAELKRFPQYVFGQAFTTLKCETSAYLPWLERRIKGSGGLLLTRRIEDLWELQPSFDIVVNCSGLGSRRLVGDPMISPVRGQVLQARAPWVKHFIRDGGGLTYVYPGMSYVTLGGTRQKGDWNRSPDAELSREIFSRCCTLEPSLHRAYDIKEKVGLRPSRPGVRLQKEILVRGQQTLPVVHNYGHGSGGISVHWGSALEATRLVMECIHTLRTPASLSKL
# Test: biochemical
# Set-up: gene Ddo
structure (smiles),measurement,value
Cc1cc2c(s1)Nc1ccccc1N=C2N1CCN(C)CC1 [olanzapine],IC50,5.6 ± 0.8 µM

# Reference: publication PMC5385520, “Olanzapine, but not clozapine, increases glutamate release in the prefrontal cortex of freely moving mice by inhibiting D-aspartate oxidase activity” (Scientific Reports, 2017)
